Literature values as cited in patent US11744273B2, “Sweetness enhancing volatile compositions and methods of increasing perceived sweetness of a comestible” (University of Florida Research Foundation, Inc., priority 2016, dated 2023).

Conditions: tomato volatiles; cited from earlier work

**Q.** With CC(C)=CCC/C(C)=C\C=O [neral] as the molecule, how does the Odor description read?
**A.** Its Odor description is “lemon”.

**Q.** With CC(C)CCO [3-methyl-1-butanol] as the molecule, how does the Odor description read?
**A.** Its Odor description is “whiskey”.

**Q.** With CC(C)=CCCC(C)O (centres unmarked) [6-methyl-5-hepten-2-ol] as the molecule, how does the Odor description read?
**A.** The Odor description was “oily green coriander”.

**Q.** For C=CC(=O)CC [1-penten-3-one], which Odor description is on record?
**A.** Its Odor description is “earthy, green, pungent”.

**Q.** With CC(C)CC(=O)O [isovaleric acid] as the molecule, how does the Odor description read?
**A.** The Odor description was “cheesy or sweaty”.

**Q.** With CC(=O)OCCC(C)C [isopentyl acetate] as the molecule, how does the Odor description read?
**A.** The Odor description was “juicy fruit, banana, pear”.

**Q.** For CCC(C)C=O (centres unmarked) [2-methylbuteraldehyde, 2-methylbutanal], which Odor description is on record?
**A.** The Odor description was “chocolate”.

**Q.** For CC1C=CC2C(C1)C2(C)C (centres unmarked) [4-carene], which Odor description is on record?
**A.** The Odor description was “dry, woody, sage, thyme”.
